Taken from: PubChem BioAssay AID1259284 (Sanger Institute, 2017)

Screen: 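siRNA screen across the kinome seeking partners for BYL719, cetuximab or trametinib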 (primary screen)
System: SW48 human colorectal cancer cells
Reagents: siRNA pool against human genes
Treatment: anchor drug BYL719 at 1 µM, cetuximab at 5 µg/ml or trametinib at 10 nM, or DMSO vehicle alone
Measured: 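Viability scaled to non-targeting control pool, robust z-score from controls, and synergy scores for each drug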
Direction: robust z-score, no drug: higher = more cells survive knock-down
Hit rule: 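Called essential when the robust z-score of viability without drug falls below -3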
Calls: active = essential without drug; inactive = no change without drug
In all, the deposit lists 794 reagents; shown is a random part of them. 16 of all reagents (2%) were called active. 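Calls concern knock-down without drug only; drug synergy was judged apart, with scores above 0.15 taken as synergy.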 Not all columns of the deposit are shown. Not stated in the record: the amount of reagent, the time to read-out.

| Target gene | robust z-score, no drug | Outcome |
| --- | --- | --- |
| NR4A2 (nuclear receptor subfamily 4 group A member 2) | -0.224 | inactive |
| PSKH2 (protein serine kinase H2) | 0.426 | inactive |
| CHUK | 0.426 | inactive |
| CDK5 (cyclin dependent kinase 5) | 0.426 | inactive |
| DYRK4 (dual specificity tyrosine phosphorylation regulated kinase 4) | 0.426 | inactive |
| MUSK (muscle associated receptor tyrosine kinase) | -0.955 | inactive |
| MOK (MOK protein kinase) | 0.426 | inactive |
| CAMK2A (calcium/calmodulin dependent protein kinase II alpha) | 0.426 | inactive |
| PKMYT1 (protein kinase, membrane associated tyrosine/threonine 1) | 0.426 | inactive |
| PANK4 (pantothenate kinase 4 (inactive)) | -2.17 | inactive |
| EPHA2 (EPH receptor A2) | 0.426 | inactive |
| CDKL3 (cyclin dependent kinase like 3) | 0.426 | inactive |
| STK32A (serine/threonine kinase 32A) | 0.426 | inactive |
| FER (FER tyrosine kinase) | 0.426 | inactive |
| GAK (cyclin G associated kinase) | 0.426 | inactive |
| STYK1 (STY kinase 1) | 0.426 | inactive |
| LMTK3 (lemur tail kinase 3) | 0.426 | inactive |
| GALK1 (galactokinase 1) | -3.22 | active |
| MECOM (MDS1 and EVI1 complex locus) | 0.426 | inactive |
| MAP3K10 (mitogen-activated protein kinase kinase kinase 10) | 0.426 | inactive |

Part of the list above, reformatted.
Target gene | robust z-score, no drug | Outcome
PKMYT1 (protein kinase, membrane associated tyrosine/threonine 1) | 0.426 | inactive
PANK4 (pantothenate kinase 4 (inactive)) | -2.17 | inactive
